# The other results are listed elsewhere or left out.
# B1: Flo10 (Saccharomyces cerevisiae), P36170 (protein)
# chain: MPVAARYIFLTGLFLLSVANVALGTTEACLPAGEKKNGMTINFYQYSLKDSSTYSNPSYMAYGYADAEKLGSVSGQTKLSIDYSIPCNGASDTCACSDDDATEYSASQVVPVKRGVKLCSDNTTLSSKTEKRENDDCDQGAAYWSSDLFGFYTTPTNVTVEMTGYFLPPKTGTYTFGFATVDDSAILSVGGNVAFECCKQEQPPITSTDFTINGIKPWNADAPTDIKGSTYMYAGYYYPIKIVYSNAVSWGTLPVSVVLPDGTEVNDDFEGYVFSFDDNATQAHCSVPNPAEHARTCVSSATSSWSSSEVCTECTETESTSYVTPYVTSSSWSSSEVCTECTETESTSTSTPYVTSSSSSSSEVCTECTETESTSYVTPYVSSSTAAANYTSSFSSSSEVCTECTETESTSTSTPYVTSSSWSSSEVCTECTETESTSYVTPYVSSSTAAANYTSSFSSSSEVCTECTETESTSTSTPYVTSSSSSSSEVCTECTETESTSYVTPYVSSSTAAANYTSSFSSSSEVCTECTETESTSTSTPYVTSSSWSSSEVCTECTETESTSYVTPYVSSSTAAANYTSSFSSSSEVCTECTETESTSTSTPYATSSTGTATSFTASTSNTMTSLVQTDTTVSFSLSSTVSEHTNAPTSSVESNASTFISSNKGSVKSYVTSSIHSITPMYPSNQTVTSSSVVSTPITSESSESSASVTILPSTITSEFKPSTMKTKVVSISSSPTNLITSYDTTSKDSTVGSSTSSVSLISSISLPSSYSASSEQIFHSSIVSSNGQALTSFSSTKVSSSESSESHRTSPTTSSESGIKSSGVEIESTSTSSFSFHETSTASTSVQISSQFVTPSSPISTVAPRSTGLNSQTESTNSSKETMSSENSASVMPSSSATSPKTGKVTSDETSSGFSRDRTTVYRMTSETPSTNEQTTLITVSSCESNSCSNTVSSAVVSTATTTINGITTEYTTWCPLSATELTTVSKLESEEKTTLITVTSCESGVCSETASPAIVSTATATVNDVVTVYSTWSPQATNKLAVSSDIENSASKASFVSEAAETKSISRNNNFVPTSGTTSIETHTTTTSNASENSDNVSASEAVSSKSVTNPVLISVSQQPRGTPASSMIGSSTASLEMSSYLGIANHLLTNSGISIFIASLLLAIV
# Legend:
# Assay in all cases: glycan array binding signal (z-score within array); higher = stronger binding
# Details in all cases: glycan notation: IUPAC condensed, linker removed
# [1] = biological target: Neu5Ac(a2-6)Gal(b1-4)GlcNAc(b1-2)Man(a1-3)Man(b1-4)GlcNAc(b1-4)GlcNAc
# How it was run: (§1)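 Glycan array data came from 3228 arrays in the Consortium for Functional Glycomics database, and only arrays with an available protein sequence were kept. Glycan names were put into IUPAC-condensed notation, and columns mapping to the same glycan were averaged. The binding signal is a within-array Z-score, averaged across arrays of one protein sequence run at different concentrations or buffers and across linkers. A negative Z-score can be read as non-binding.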
# [2] = biological target: Neu5Ac(a2-6)Gal(b1-4)GlcNAc(b1-2)Man(a1-3)[Gal(b1-4)GlcNAc(b1-2)Man(a1-6)]Man(b1-4)GlcNAc(b1-4)GlcNAc
# How it was run: as §1
# [3] = biological target: Neu5Ac(a2-6)Gal(b1-4)GlcNAc(b1-2)Man(a1-3)[GlcNAc(b1-2)Man(a1-6)]Man(b1-4)GlcNAc(b1-4)GlcNAc
# How it was run: as §1
# [4] = biological target: Neu5Ac(a2-6)Gal(b1-4)GlcNAc(b1-2)Man(a1-3)[GlcNAc(b1-2)Man(b1-4)GlcNAc(b1-2)Man(a1-6)]Man(b1-4)GlcNAc(b1-4)GlcNAc
# How it was run: as §1
# [5] = biological target: Neu5Ac(a2-6)Gal(b1-4)GlcNAc(b1-2)Man(a1-3)[Man(a1-6)]Man(b1-4)GlcNAc(b1-4)GlcNAc
# How it was run: as §1
# [6] = biological target: Neu5Ac(a2-6)Gal(b1-4)GlcNAc(b1-2)Man(a1-3)[Neu5Ac(a2-6)Gal(b1-4)GlcNAc(b1-2)Man(a1-6)]Man(b1-4)GlcNAc(b1-4)GlcNAc
# How it was run: as §1
# [7] = biological target: Neu5Ac(a2-6)Gal(b1-4)GlcNAc(b1-2)Man(a1-6)Man(b1-4)GlcNAc(b1-4)GlcNAc
# How it was run: as §1
# [8] = biological target: Neu5Ac(a2-6)Gal(b1-4)GlcNAc(b1-2)Man(a1-6)[Gal(b1-4)GlcNAc(b1-2)Man(a1-3)]Man(b1-4)GlcNAc(b1-4)GlcNAc
# How it was run: as §1
# [9] = biological target: Neu5Ac(a2-6)Gal(b1-4)GlcNAc(b1-2)Man(a1-6)[GlcNAc(b1-2)Man(a1-3)]Man(b1-4)GlcNAc(b1-4)GlcNAc
# How it was run: as §1
# [10] = biological target: Neu5Ac(a2-6)Gal(b1-4)GlcNAc(b1-2)Man(a1-6)[Man(a1-3)]Man(b1-4)GlcNAc(b1-4)GlcNAc
# How it was run: as §1
# [11] = biological target: Neu5Ac(a2-6)Gal(b1-4)GlcNAc(b1-3)Gal(b1-3)GlcNAc
# How it was run: as §1
# [12] = biological target: Neu5Ac(a2-6)Gal(b1-4)GlcNAc(b1-3)Gal(b1-4)GlcNAc
# How it was run: as §1
# [13] = biological target: Neu5Ac(a2-6)Gal(b1-4)GlcNAc(b1-3)Gal(b1-4)GlcNAc(b1-3)Gal(b1-4)GlcNAc
# How it was run: as §1
# [14] = biological target: Neu5Ac(a2-6)Gal(b1-4)GlcNAc(b1-3)Gal(b1-4)[Fuc(a1-3)]GlcNAc(b1-3)Gal(b1-4)[Fuc(a1-3)]GlcNAc
# How it was run: as §1
# [15] = biological target: Neu5Ac(a2-6)Gal(b1-4)GlcNAc(b1-3)GalNAc
# How it was run: as §1
# [16] = biological target: Neu5Ac(a2-6)Gal(b1-4)GlcNAc6S
# How it was run: as §1
# Neu5Ac(a2-6)GalNAc = biological target: Neu5Ac(a2-6)GalNAc
# How it was run: as §1
# [17] = biological target: Neu5Ac(a2-6)GalNAc(b1-4)GlcNAc
# How it was run: as §1
# [18] = biological target: Neu5Ac(a2-6)GlcNAc(b1-4)GlcNAc
# How it was run: as §1
# [19] = biological target: Neu5Ac(a2-6)GlcNAc(b1-4)GlcNAc(b1-4)GlcNAc
# How it was run: as §1
# Neu5Ac(a2-8)Neu5Ac = biological target: Neu5Ac(a2-8)Neu5Ac
# How it was run: as §1
# [20] = biological target: Neu5Ac(a2-8)Neu5Ac(a2-3)Gal(b1-4)Glc
# How it was run: as §1
# [21] = biological target: Neu5Ac(a2-8)Neu5Ac(a2-3)[GalNAc(b1-4)]Gal(b1-4)Glc
# How it was run: as §1
# [22] = biological target: Neu5Ac(a2-8)Neu5Ac(a2-8)Neu5Ac
# How it was run: as §1
# [23] = biological target: Neu5Ac(a2-8)Neu5Ac(a2-8)Neu5Ac(a2-3)Gal(b1-4)Glc
# How it was run: as §1
# [24] = biological target: Neu5Ac(a2-8)Neu5Ac(a2-8)Neu5Ac(a2-3)[GalNAc(b1-4)]Gal(b1-4)Glc
# How it was run: as §1
# [25] = biological target: Neu5Ac(a2-8)Neu5Ac(a2-8)Neu5Ac(a2-8)Neu5Ac(a2-3)[GalNAc(b1-4)]Gal(b1-4)Glc
# How it was run: as §1
# [26] = biological target: Neu5Ac(b2-6)Gal(b1-4)GlcNAc
# How it was run: as §1
# Neu5Ac(b2-6)GalNAc = biological target: Neu5Ac(b2-6)GalNAc
# How it was run: as §1
# [27] = biological target: Neu5Ac9Ac(a2-3)Gal(b1-3)GlcNAc
# How it was run: as §1
# [28] = biological target: Neu5Ac9Ac(a2-3)Gal(b1-4)GlcNAc
# How it was run: as §1
# [29] = biological target: Neu5Ac9Ac(a2-6)Gal(b1-4)GlcNAc
# How it was run: as §1
# [30] = biological target: Neu5Gc(a2-3)Gal(b1-3)GlcNAc
# How it was run: as §1
# [31] = biological target: Neu5Gc(a2-3)Gal(b1-3)[Fuc(a1-4)]GlcNAc
# How it was run: as §1
# Neu5Gc(a2-3)Gal(b1-4)Glc = biological target: Neu5Gc(a2-3)Gal(b1-4)Glc
# How it was run: as §1
# [32] = biological target: Neu5Gc(a2-3)Gal(b1-4)GlcNAc
# How it was run: as §1
# [33] = biological target: Neu5Gc(a2-3)Gal(b1-4)[Fuc(a1-3)]GlcNAc
# How it was run: as §1
# [34] = biological target: Neu5Gc(a2-6)Gal(b1-4)GlcNAc
# How it was run: as §1
# Neu5Gc(a2-6)GalNAc = biological target: Neu5Gc(a2-6)GalNAc
# How it was run: as §1
# [35] = biological target: Neu5Gc(b2-6)Gal(b1-4)GlcNAc
# How it was run: as §1
binder,measurement,setting,value
B1,glycan array binding signal (z-score),[1],3.04
same,glycan array binding signal (z-score),[2],1.84
same,glycan array binding signal (z-score),[3],1.36
same,glycan array binding signal (z-score),[4],-0.665
same,glycan array binding signal (z-score),[5],1.91
same,glycan array binding signal (z-score),[6],-0.615
same,glycan array binding signal (z-score),[7],3.12
same,glycan array binding signal (z-score),[8],0.223
same,glycan array binding signal (z-score),[9],-0.398
same,glycan array binding signal (z-score),[10],1.55
same,glycan array binding signal (z-score),[11],-0.243
same,glycan array binding signal (z-score),[12],-0.726
same,glycan array binding signal (z-score),[13],-0.363
same,glycan array binding signal (z-score),[14],-0.603
same,glycan array binding signal (z-score),[15],-0.493
same,glycan array binding signal (z-score),[16],-0.867
same,glycan array binding signal (z-score),Neu5Ac(a2-6)GalNAc,-0.743
same,glycan array binding signal (z-score),[17],-0.635
same,glycan array binding signal (z-score),[18],-0.177
same,glycan array binding signal (z-score),[19],-0.236
same,glycan array binding signal (z-score),Neu5Ac(a2-8)Neu5Ac,1.28
same,glycan array binding signal (z-score),[20],-0.058
same,glycan array binding signal (z-score),[21],-0.604
same,glycan array binding signal (z-score),[22],0.423
same,glycan array binding signal (z-score),[23],-0.279
same,glycan array binding signal (z-score),[24],-0.734
same,glycan array binding signal (z-score),[25],0.14
same,glycan array binding signal (z-score),[26],-0.737
same,glycan array binding signal (z-score),Neu5Ac(b2-6)GalNAc,-0.62
same,glycan array binding signal (z-score),[27],-0.021
same,glycan array binding signal (z-score),[28],0.049
same,glycan array binding signal (z-score),[29],-0.857
same,glycan array binding signal (z-score),[30],-0.627
same,glycan array binding signal (z-score),[31],-0.571
same,glycan array binding signal (z-score),Neu5Gc(a2-3)Gal(b1-4)Glc,-0.84
same,glycan array binding signal (z-score),[32],-0.495
same,glycan array binding signal (z-score),[33],0.41
same,glycan array binding signal (z-score),[34],2.07
same,glycan array binding signal (z-score),Neu5Gc(a2-6)GalNAc,-0.092
same,glycan array binding signal (z-score),[35],-0.486

# In another format: results already given
binder | measurement | setting | value
B1 | glycan array binding signal (z-score) | [2] | 1.84
same | glycan array binding signal (z-score) | [12] | -0.726

# Reference: the supplement of paper PMC8728848
